We go through 15 targets from the supplement of paper PMC6411743.

Protein sequences, listed by entry. Tags and fused reporters are not part of them. Lines headed by an entry give the natural chain unless they say otherwise; changes in a name come on top.
UniProt Q9BUK0: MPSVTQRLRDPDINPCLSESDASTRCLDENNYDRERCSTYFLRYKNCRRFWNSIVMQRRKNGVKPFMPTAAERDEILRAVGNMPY
UniProt Q9UPN9: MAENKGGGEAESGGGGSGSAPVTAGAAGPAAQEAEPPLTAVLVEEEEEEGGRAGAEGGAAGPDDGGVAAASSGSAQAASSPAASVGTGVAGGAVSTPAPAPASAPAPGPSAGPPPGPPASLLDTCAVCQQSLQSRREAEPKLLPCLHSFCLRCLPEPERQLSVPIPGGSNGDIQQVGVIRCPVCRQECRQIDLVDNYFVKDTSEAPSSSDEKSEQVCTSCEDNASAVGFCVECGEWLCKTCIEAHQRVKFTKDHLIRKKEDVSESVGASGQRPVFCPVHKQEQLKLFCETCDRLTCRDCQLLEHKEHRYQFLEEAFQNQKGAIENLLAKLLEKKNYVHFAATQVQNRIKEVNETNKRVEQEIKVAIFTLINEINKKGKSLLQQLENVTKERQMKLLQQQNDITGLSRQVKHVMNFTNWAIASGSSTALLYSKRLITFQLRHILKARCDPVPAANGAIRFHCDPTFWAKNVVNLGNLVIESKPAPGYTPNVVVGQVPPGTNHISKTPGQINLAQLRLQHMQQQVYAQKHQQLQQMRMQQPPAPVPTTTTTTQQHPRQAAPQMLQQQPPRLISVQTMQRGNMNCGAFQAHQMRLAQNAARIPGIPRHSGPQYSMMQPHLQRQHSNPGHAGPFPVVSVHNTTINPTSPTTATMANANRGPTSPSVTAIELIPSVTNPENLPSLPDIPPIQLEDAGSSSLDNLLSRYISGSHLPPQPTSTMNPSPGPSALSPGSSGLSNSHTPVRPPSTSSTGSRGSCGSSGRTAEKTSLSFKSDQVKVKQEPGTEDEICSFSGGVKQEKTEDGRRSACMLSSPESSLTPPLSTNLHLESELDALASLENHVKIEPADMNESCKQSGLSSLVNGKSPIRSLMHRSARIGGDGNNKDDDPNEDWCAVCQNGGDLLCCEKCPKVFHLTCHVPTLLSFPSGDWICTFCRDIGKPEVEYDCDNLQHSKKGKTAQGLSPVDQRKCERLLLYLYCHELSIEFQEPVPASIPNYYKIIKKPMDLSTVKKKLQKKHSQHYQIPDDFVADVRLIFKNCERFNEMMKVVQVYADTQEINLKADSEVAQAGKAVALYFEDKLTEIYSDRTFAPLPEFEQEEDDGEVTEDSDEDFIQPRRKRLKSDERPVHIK
UniProt Q8N9N7: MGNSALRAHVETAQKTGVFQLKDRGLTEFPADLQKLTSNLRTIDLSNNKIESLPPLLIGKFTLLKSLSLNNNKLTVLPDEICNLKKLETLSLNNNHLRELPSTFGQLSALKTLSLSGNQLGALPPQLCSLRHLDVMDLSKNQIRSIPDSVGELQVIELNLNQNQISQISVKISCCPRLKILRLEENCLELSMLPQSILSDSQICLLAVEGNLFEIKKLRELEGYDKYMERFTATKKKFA
UniProt Q14204, whole entry: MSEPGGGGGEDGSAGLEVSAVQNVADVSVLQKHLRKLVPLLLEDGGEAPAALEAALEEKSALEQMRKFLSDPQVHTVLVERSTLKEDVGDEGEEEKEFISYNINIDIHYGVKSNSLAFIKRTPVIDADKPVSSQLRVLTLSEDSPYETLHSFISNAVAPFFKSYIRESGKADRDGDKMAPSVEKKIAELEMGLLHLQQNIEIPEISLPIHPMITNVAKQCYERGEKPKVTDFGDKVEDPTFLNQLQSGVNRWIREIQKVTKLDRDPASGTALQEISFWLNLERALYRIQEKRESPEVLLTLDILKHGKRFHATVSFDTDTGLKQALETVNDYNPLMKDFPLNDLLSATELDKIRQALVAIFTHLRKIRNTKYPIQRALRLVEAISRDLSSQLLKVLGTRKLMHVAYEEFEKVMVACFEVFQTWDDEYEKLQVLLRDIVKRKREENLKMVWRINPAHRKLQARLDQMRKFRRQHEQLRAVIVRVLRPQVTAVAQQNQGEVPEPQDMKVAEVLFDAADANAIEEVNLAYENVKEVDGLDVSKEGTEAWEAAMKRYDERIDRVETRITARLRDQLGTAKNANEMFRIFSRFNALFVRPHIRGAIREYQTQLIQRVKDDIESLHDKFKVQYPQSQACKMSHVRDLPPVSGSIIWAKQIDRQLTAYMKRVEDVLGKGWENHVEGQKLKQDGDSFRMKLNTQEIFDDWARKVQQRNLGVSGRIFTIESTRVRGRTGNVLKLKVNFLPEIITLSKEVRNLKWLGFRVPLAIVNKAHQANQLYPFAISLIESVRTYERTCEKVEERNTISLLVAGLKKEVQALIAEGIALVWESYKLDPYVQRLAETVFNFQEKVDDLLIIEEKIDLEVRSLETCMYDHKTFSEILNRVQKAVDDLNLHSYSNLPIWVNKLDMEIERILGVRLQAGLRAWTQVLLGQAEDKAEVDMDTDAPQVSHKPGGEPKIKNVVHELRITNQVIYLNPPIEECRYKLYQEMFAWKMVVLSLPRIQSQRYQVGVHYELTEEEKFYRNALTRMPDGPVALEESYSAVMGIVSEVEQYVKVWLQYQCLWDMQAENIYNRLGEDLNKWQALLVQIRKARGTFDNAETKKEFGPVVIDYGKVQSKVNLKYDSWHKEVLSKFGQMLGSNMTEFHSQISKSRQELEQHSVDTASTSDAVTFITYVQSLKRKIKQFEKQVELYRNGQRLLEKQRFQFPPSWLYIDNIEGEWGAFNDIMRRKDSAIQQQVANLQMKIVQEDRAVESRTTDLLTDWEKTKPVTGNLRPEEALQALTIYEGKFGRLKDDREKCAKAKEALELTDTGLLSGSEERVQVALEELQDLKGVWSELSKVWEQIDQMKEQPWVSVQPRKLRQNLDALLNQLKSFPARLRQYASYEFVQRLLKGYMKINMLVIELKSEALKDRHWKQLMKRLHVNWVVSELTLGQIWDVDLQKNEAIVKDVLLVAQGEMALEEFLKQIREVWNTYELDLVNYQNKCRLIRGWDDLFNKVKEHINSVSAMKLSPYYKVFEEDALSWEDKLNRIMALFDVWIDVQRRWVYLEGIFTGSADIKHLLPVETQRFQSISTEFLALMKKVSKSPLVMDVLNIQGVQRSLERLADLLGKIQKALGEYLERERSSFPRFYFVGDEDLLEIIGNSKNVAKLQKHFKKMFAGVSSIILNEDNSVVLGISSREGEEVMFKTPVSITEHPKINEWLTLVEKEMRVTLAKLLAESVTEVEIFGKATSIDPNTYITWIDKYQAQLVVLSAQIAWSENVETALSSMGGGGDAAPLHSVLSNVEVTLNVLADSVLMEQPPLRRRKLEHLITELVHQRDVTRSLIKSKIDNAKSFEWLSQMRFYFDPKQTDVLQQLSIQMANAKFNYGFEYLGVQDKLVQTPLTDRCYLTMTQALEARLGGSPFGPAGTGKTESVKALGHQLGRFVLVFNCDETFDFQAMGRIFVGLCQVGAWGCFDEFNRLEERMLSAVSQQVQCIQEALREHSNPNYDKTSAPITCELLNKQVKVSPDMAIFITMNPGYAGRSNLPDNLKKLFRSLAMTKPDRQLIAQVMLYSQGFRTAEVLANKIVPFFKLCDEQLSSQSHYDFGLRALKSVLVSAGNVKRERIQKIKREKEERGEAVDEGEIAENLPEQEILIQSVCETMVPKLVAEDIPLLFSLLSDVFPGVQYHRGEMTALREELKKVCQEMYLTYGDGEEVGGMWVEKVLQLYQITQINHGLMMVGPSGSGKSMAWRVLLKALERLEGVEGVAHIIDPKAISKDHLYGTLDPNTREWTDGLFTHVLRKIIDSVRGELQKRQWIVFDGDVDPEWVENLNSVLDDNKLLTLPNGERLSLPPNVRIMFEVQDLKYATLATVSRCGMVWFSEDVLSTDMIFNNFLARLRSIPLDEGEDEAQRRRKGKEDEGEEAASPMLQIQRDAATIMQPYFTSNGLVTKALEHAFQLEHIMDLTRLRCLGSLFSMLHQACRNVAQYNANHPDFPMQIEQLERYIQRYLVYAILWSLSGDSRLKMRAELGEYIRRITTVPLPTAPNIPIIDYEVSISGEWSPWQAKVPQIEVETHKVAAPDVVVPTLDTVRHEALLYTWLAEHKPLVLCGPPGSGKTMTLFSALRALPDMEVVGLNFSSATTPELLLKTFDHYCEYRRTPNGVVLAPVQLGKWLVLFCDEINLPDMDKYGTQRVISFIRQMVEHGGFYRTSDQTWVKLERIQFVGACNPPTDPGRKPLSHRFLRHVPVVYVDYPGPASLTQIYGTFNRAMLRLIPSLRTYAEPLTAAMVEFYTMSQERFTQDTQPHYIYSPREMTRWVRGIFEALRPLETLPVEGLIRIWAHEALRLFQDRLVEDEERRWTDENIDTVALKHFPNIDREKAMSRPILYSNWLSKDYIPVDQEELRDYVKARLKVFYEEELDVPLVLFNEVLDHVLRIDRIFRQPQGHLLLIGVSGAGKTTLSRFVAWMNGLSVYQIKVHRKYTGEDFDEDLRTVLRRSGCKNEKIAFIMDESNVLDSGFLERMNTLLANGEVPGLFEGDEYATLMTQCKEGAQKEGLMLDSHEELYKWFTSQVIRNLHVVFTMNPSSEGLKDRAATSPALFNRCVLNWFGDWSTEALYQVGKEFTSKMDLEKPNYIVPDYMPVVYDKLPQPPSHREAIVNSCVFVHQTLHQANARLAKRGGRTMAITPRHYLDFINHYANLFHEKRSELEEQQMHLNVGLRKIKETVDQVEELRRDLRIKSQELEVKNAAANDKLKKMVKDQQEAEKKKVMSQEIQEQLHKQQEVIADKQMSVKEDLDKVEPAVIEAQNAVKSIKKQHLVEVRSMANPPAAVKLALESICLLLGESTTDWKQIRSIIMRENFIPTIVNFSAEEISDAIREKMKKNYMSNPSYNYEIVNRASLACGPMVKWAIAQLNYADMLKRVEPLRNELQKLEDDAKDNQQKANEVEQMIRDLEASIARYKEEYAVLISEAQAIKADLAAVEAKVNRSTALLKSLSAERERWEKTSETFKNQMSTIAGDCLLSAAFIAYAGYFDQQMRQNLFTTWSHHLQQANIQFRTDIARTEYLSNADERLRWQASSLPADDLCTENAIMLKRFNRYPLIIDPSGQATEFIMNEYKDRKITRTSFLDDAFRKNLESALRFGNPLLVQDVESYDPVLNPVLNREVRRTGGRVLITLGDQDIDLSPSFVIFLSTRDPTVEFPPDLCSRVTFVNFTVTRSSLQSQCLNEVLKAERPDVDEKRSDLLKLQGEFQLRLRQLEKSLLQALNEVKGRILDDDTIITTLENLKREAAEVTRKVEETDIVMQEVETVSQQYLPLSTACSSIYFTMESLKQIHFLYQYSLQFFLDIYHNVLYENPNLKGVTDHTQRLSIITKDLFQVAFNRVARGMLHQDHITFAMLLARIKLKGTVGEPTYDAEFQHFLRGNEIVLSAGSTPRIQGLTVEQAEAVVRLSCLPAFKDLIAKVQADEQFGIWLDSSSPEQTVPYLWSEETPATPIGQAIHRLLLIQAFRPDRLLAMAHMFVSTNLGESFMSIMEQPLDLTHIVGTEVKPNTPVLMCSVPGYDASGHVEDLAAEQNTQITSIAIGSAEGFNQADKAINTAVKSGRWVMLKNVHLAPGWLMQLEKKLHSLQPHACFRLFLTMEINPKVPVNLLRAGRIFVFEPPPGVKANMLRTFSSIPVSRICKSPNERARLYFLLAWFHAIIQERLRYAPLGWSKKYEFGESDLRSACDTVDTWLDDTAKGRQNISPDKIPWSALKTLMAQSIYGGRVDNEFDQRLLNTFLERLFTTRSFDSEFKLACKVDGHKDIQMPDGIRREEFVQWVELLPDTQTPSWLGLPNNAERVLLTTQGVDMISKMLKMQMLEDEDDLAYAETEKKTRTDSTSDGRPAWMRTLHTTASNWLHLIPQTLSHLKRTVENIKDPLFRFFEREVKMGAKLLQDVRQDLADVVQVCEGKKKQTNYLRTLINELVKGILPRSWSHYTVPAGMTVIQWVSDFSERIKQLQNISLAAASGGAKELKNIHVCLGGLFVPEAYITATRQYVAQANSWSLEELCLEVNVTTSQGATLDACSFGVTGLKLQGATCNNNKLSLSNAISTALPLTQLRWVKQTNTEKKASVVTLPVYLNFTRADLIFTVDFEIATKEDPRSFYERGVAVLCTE
UniProt Q07021: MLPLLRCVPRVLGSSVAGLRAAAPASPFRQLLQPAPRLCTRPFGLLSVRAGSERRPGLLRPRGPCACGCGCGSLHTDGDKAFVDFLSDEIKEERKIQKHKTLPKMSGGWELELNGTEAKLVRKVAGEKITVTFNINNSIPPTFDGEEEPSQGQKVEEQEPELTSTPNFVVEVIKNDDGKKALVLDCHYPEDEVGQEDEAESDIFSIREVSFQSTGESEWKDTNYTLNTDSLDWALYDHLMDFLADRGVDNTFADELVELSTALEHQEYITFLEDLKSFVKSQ
UniProt Q8WUD4: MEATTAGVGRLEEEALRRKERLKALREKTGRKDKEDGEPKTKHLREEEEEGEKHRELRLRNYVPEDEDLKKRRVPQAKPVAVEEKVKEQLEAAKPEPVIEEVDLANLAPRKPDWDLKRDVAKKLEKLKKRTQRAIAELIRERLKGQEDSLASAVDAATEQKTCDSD

± gives the standard deviation of the averaged measurements. The entries are a selection whose mix differs from that of the whole data set.

Compound in this test: Nc1ncnc2c1ncn2[C@@H]1O[C@H](COP(=O)(O)OP(=O)(O)NP(=O)(O)O)[C@@H](O)[C@H]1O [adenylyl imidodiphosphate]
The test is described as follows: NP40-soluble protein abundance relative to vehicle (solubility fold change) (ratio); higher = more soluble protein in presence of AMP-PNP. Put shortly: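 Crude Jurkat lysate, prepared by Dounce homogenisation, was exposed to eight concentrations from 0.1 to 10 mM for 10 min at room temperature and then 3 min at 37 °C. Solubilisation used 0.8% NP40 with benzonase for 60 min at 4 °C, followed by ultracentrifugation and TMT labelling of the supernatant for LC-MS/MS. After vsn normalisation of intensities, each value is the fold change against the detergent-processed vehicle within each replicate, across three independent experiments.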

For the target “G3XAG1 and related entries (UniProt Q96ME7)”, the NP40-soluble protein abundance came out at 1.04 ± 0.064 (concentration: 1mM); 1.03 ± 0.1 (concentration: 2mM); 1.17 ± 0.086 (concentration: 4mM); 1.39 ± 0.083 (concentration: 6mM); 1.52 ± 0.039 (concentration: 8mM); 1.64 ± 0.1 (concentration: 10mM).

On to “J3KMZ7 and related entries (UniProt Q9H0H0)”, for which the NP40-soluble protein abundance (concentration: 1mM) was 1.04 ± 0.041; the NP40-soluble protein abundance (concentration: 2mM) was 1.03 ± 0.05; the NP40-soluble protein abundance (concentration: 4mM) was 1.05 ± 0.033; the NP40-soluble protein abundance (concentration: 6mM) amounted to 1.06 ± 0.069; the NP40-soluble protein abundance (concentration: 8mM) was 1.04 ± 0.054; the NP40-soluble protein abundance (concentration: 10mM) worked out at 1.09 ± 0.056.

As to “J3KPV1 and related entries (UniProt Q9BUK0)”, the NP40-soluble protein abundance reads like this: (concentration: 1mM) 0.98 ± 0.03; (concentration: 2mM) 1.01 ± 0.017; (concentration: 4mM) 0.96 ± 0.025; (concentration: 6mM) 0.985 ± 0.026; (concentration: 8mM) 0.95 ± 0.022; (concentration: 10mM) 0.962 ± 0.024.

Take “H7BYU6 and related entries (UniProt Q96K83)”: the NP40-soluble protein abundance (concentration: 1mM) was determined as 0.978 ± 0.036; the NP40-soluble protein abundance (concentration: 2mM) came to 0.988 ± 0.015; the NP40-soluble protein abundance (concentration: 4mM) was 0.986 ± 0.031; the NP40-soluble protein abundance (concentration: 6mM) worked out at 0.99 ± 0.015; the NP40-soluble protein abundance (concentration: 8mM) was found to be 0.996 ± 0.027; the NP40-soluble protein abundance (concentration: 10mM) stood at 0.984 ± 0.014.

For the target “H0Y612 and related entries (UniProt Q9UPN9)”, the NP40-soluble protein abundance is 1.01 ± 0.027 (concentration: 1mM); 1.04 ± 0.041 (concentration: 2mM); 1.04 ± 0.029 (concentration: 4mM); 1.062 ± 0.0097 (concentration: 6mM); 1.02 ± 0.014 (concentration: 8mM); 1.05 ± 0.02 (concentration: 10mM).

As to “H7C5A7 and related entries (UniProt O14734)”, the NP40-soluble protein abundance is, setting by setting: (concentration: 1mM) 0.962 ± 0.017; (concentration: 2mM) 0.932 ± 0.036; (concentration: 4mM) 0.956 ± 0.013; (concentration: 6mM) 0.984 ± 0.061; (concentration: 8mM) 0.97 ± 0.015; (concentration: 10mM) 0.961 ± 0.02.

In the case of “H7C2Q8 and related entries (UniProt Q99848)”, the NP40-soluble protein abundance reads like this: (concentration: 1mM) 0.976 ± 0.033; (concentration: 2mM) 1 ± 0.046; (concentration: 4mM) 0.988 ± 0.018; (concentration: 6mM) 0.994 ± 0.042; (concentration: 8mM) 0.951 ± 0.032; (concentration: 10mM) 1.06 ± 0.027.

“H3BSW0 and related entries (UniProt Q8N9N7)”: the NP40-soluble protein abundance by setting is: (concentration: 1mM) 0.99 ± 0.038; (concentration: 2mM) 0.983 ± 0.016; (concentration: 4mM) 0.943 ± 0.022; (concentration: 6mM) 0.95 ± 0.018; (concentration: 8mM) 0.96 ± 0.011; (concentration: 10mM) 0.955 ± 0.022.

As for “H3BPZ0 and related entries (UniProt Q6PCT2)”, the NP40-soluble protein abundance was 1.01 ± 0.054 (concentration: 1mM); 1.03 ± 0.024 (concentration: 2mM); 1.036 ± 0.0089 (concentration: 4mM); 1.01 ± 0.017 (concentration: 6mM); 1.04 ± 0.023 (concentration: 8mM); 1.04 ± 0.05 (concentration: 10mM).

Turning to “H0YJ21 and related entries (UniProt Q14204)”, the NP40-soluble protein abundance is, setting by setting: (concentration: 1mM) 0.962 ± 0.035; (concentration: 2mM) 0.881 ± 0.14; (concentration: 4mM) 0.943 ± 0.084; (concentration: 6mM) 0.911 ± 0.069; (concentration: 8mM) 0.943 ± 0.1; (concentration: 10mM) 0.899 ± 0.13.

Consider “I3L072 and related entries (UniProt Q9BSJ5)”, for which the NP40-soluble protein abundance is 1.01 ± 0.034 (concentration: 1mM); 1.02 ± 0.024 (concentration: 2mM); 1.01 ± 0.011 (concentration: 4mM); 1.03 ± 0.044 (concentration: 6mM); 1.01 ± 0.012 (concentration: 8mM); 0.998 ± 0.019 (concentration: 10mM).

Regarding “I3L3Q7 and related entries (UniProt Q07021)”, the NP40-soluble protein abundance was determined as 0.766 ± 0.17 (concentration: 1mM); 0.996 ± 0.18 (concentration: 2mM); 0.842 ± 0.29 (concentration: 4mM); 0.94 ± 0.29 (concentration: 6mM); 0.883 ± 0.043 (concentration: 8mM); 0.818 ± 0.18 (concentration: 10mM).

“H7C488 and related entries (UniProt Q9NQ48)”: the NP40-soluble protein abundance by setting is: (concentration: 1mM) 0.955 ± 0.1; (concentration: 2mM) 1.025 ± 0.0079; (concentration: 4mM) 0.93 ± 0.12; (concentration: 6mM) 0.855 ± 0.062; (concentration: 8mM) 0.889 ± 0.014; (concentration: 10mM) 0.74 ± 0.1.

Turning to “J3KR35 and related entries (UniProt Q8WUD4)”, the NP40-soluble protein abundance runs as follows: (concentration: 1mM) 0.996 ± 0.087; (concentration: 2mM) 1.06 ± 0.066; (concentration: 4mM) 0.937 ± 0.097; (concentration: 6mM) 0.953 ± 0.017; (concentration: 8mM) 0.963 ± 0.025; (concentration: 10mM) 0.937 ± 0.077.

As to “H0Y5C6 and related entries (UniProt P21333)”, the NP40-soluble protein abundance runs as follows: (concentration: 1mM) 0.993 ± 0.022; (concentration: 2mM) 1.01 ± 0.026; (concentration: 4mM) 0.958 ± 0.017; (concentration: 6mM) 0.967 ± 0.026; (concentration: 8mM) 0.939 ± 0.016; (concentration: 10mM) 0.941 ± 0.015.
